Experimental findings from US20260151375A1, “CDK2 INHIBITORS AND METHODS OF USING THE SAME” (Cedilla Therapeutics, Inc., priority 2022, published 2026) are described below.

Experiment [1] deals with CDK2/Cyclin E1 (Homo sapiens, UniProt P24941). Kind of experiment: Caliper Assay (LabChip EZ Reader mobility shift assay), inhibition of CDK2/Cyclin E1 activity. Conditions: read-out: Caliper Assay (CDK2/CCNE1): IC50; 2.5 nM CDK2/Cyclin E1(14-475), 100 μM ATP, 30 min preincubation. The procedure:
Inhibition of CDK2/Cyclin E1 activity in the presence of compounds of the present disclosure was evaluated using a Caliper LabChip® EZ Reader mobility shift assay. In the assay, activated CDK2/Cyclin E1 catalyzes the phosphorylation of a fluorescently tagged peptide 5-FAM-QSPKKG-CONH2 (PerkinElmer, FL Peptide 18) which induces a difference in capillary electrophoresis mobility. The peptide substrate and product were measured, and the conversion ratio was used to determine the inhibition (as % activity and IC50 values) of CDK2/Cyclin E1. Reactions contained 50 mM HEPES pH 7.5, 10 mM MgCl2, 1 mM EDTA, 2 mM DTT, 0.01% Brij35, 0.5 mg/mL BSA, 0.1% DMSO, 2.5 nM CDK2/Cyclin E1(14-475), 100 μM ATP, and 1.5 μM fluorescent peptide substrate.
Dose titrations of inhibitors in 100% DMSO were combined with 3.25 nM CDK2/Cyclin E1(14-475) and 130 μM of ATP in reaction buffer. The mixtures were incubated for 30 minutes before the addition of fluorescent peptide substrate to initiate the kinase reaction. The final conditions were 2.5 nM CDK2/Cyclin E1(14-475), 100 μM ATP, and 1.5 μM fluorescent peptide. The reactions were stopped after 100 minutes with the addition of EDTA (6 mM final EDTA concentration). The stopped reactions were analyzed on a Caliper LabChip© EZ Reader II. […]

Experiment [2] concerns Kuramochi cells. The experiment in a line: IncuCyte Kuramochi Assay (cell proliferation). Conditions: read-out: IncuCyte - Kuramochi RB-WT: IC50; Kuramochi cells labeled with mApple-H2B, 72 hours, cell count. The procedure: IncuCyte® assay was used to measure the effect of disclosed compounds on cell proliferation. Fluorescent microscopy images of cells were taken immediately after compound treatment and 72 hours later. Image analysis software was used to obtain cell counts as a function of compound concentration. Kuramochi cells labeled with mApple-H2B were seeded on 384-well assay-ready plates. Plates were placed in an IncuCyte® (Sartorius) and scanned at 0 and 72 hours. IncuCyte® software was used to count the number of fluorescent nuclei in each well. The fold change in cell count from 0 to 72 hours in wells treated with increasing compounds concentrations (10 pts, ½ log dilution, 20 μM top concentration) was normalized to DMSO control wells. The normalized cell counts were fit with dose response curves and a […] was calculated.

The match of structure and compound is tentative.

In the case of `CC(c1csc(C2CCCC2)n1)c1nc(C2CN(C(=O)c3cncs3)CC23CN(C(=O)[C@H]2CC2(C)C)C3)no1` (some centres unmarked), the results for the IC50 in experiment [1] and in experiment [2] were 10 to 100 nM and 5000 to 10000 nM, respectively.
